Data as given in PubChem BioAssay AID1159584 (Peter MacCallum Cancer Centre, 2016).
Test: 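Knock-downs that harm CDH1-null cells more than parental MCF10A cells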 (primary screen). System: human MCF10A breast epithelial cells, parental and CDH1-null. Reagents: siRNA against human genes. Read-out: 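Cell viability by CellTiter-Glo ATP luminescence, each line scaled to the mean of mock wells across plates, then CDH1-null over parental ratio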. Reading the numbers: CDH1-null / parental viability ratio: higher = CDH1-null cells survive relatively better than parental.
In all, the deposit lists about 18,000 reagents; below is a random part of them. Not all columns of the deposit are shown. Not given: the amount of reagent, the time to read-out.

BAIAP2L1 (BAR/IMD domain containing adaptor protein 2 like 1) [SID152149782] scored CDH1-null / parental viability ratio 0.98.
For PTH (parathyroid hormone) [SID135622337] the deposit lists CDH1-null / parental viability ratio 1.06.
Depletion of MAOB (monoamine oxidase B) [SID152154967] gave: CDH1-null / parental viability ratio 0.85.
Knock-down of SH2D3A (SH2 domain containing 3A) [SID152154745] gave: CDH1-null / parental viability ratio 1.05.
For CYB5R3 (cytochrome b5 reductase 3) [SID152147820] the deposit lists CDH1-null / parental viability ratio 0.85.
With knock-down of NES (nestin) [SID134328914], the record shows CDH1-null / parental viability ratio 1.41.
PSMB9 (proteasome 20S subunit beta 9) [SID152155723] scored CDH1-null / parental viability ratio 1.15.
For SPSB1 (splA/ryanodine receptor domain and SOCS box containing 1) [SID152153251] the deposit lists CDH1-null / parental viability ratio 1.09.
With knock-down of C5orf34 (chromosome 5 open reading frame 34) [SID134329330] the results were CDH1-null / parental viability ratio 0.99.
Against RBSN (rabenosyn, RAB effector) [SID152150827], the entry reads CDH1-null / parental viability ratio 1.
Depletion of ATP2C1 (ATPase secretory pathway Ca2+ transporting 1) [SID134311538] resulted in: CDH1-null / parental viability ratio 0.91.
Against ITGB1BP1 (integrin subunit beta 1 binding protein 1) [SID152148039], the entry reads CDH1-null / parental viability ratio 0.58.
KRTAP13-2 (keratin associated protein 13-2) [SID152149628] showed CDH1-null / parental viability ratio 0.86.
Against TUBE1 (tubulin epsilon 1) [SID134312006] the deposit lists CDH1-null / parental viability ratio 1.
After knock-down of ABCC4 (ATP binding cassette subfamily C member 4 (PEL blood group)) [SID135621347], the record shows CDH1-null / parental viability ratio 1.27.
Depletion of QSOX2 (quiescin sulfhydryl oxidase 2) [SID152154957] resulted in: CDH1-null / parental viability ratio 1.13.
Knock-down of CLC (Charcot-Leyden crystal galectin) [SID134316672] came out at: CDH1-null / parental viability ratio 0.9.
For SAMD15 (sterile alpha motif domain containing 15) [SID152150515] the deposit lists CDH1-null / parental viability ratio 1.06.
For VEPH1 (ventricular zone expressed PH domain containing 1) [SID134318549] the deposit lists CDH1-null / parental viability ratio 1.09.
PWWP3A (PWWP domain containing 3A, DNA repair factor) [SID134322896] scored CDH1-null / parental viability ratio 0.96.
After knock-down of ZNF182 (zinc finger protein 182) [SID152146956], the record shows CDH1-null / parental viability ratio 1.06.
For SLC25A29 [SID152152457], the values are CDH1-null / parental viability ratio 0.89.
With knock-down of ADCK5 (aarF domain containing kinase 5) [SID56479281], the record shows CDH1-null / parental viability ratio 0.79.
After knock-down of TMEM79 (transmembrane protein 79) [SID134318942], the record shows CDH1-null / parental viability ratio 0.97.

In a second layout: results already given
ZNF182 (zinc finger protein 182) [SID152146956]
- CDH1-null / parental viability ratio: 1.06

SLC25A29 [SID152152457]
- CDH1-null / parental viability ratio: 0.89

ADCK5 (aarF domain containing kinase 5) [SID56479281]
- CDH1-null / parental viability ratio: 0.79

TMEM79 (transmembrane protein 79) [SID134318942]
- CDH1-null / parental viability ratio: 0.97
